The values below are quoted from earlier work in patent publication US20160045687A1, “NASAL ADMINISTRATION” (OPTINOSE AS, priority 2013, published 2016).

For the series the following is noted: cited from earlier work.

In the case of `O=C=O` [carbon dioxide], under “5 L/min, 3 s duration, 20% carbon dioxide”, the “decrease in extracellular nasal mucosal pH during each pulse” value is listed as 0.05-0.1 pH units. Besides, the “carbon dioxide concentration required to see a change in the nasal pH” value (in vivo) is greater than 15%.
